Data taken from the supplement of paper PMC4604168 (melanoma cell lines).
The other results are listed elsewhere or left out. Single values are uncertain, as repeats are few or missing.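 The apoptosis fraction was the count of cleaved-PARP antibody-stained nuclei relative to all DNA-stained nuclei, imaged in 1,536-well plates. Screening doses were set so most cells survived, and baseline and induced cleaved-PARP levels vary greatly across cell lines.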

Each molecule was assayed on RVH-421 (assay: cleaved PARP positive nuclei fraction relative to DMSO control; melanoma cells; higher = more apoptosis). Conditions: library dose: low library concentration; 72 h.
For `Oc1cc(-c2nc(-c3ccccc3)[nH]c2-c2ccncc2)ccc1Cl` + C/C(O)=C(\C#N)C(=O)Nc1cc(Br)ccc1Br [LFM-A13] (first compound 0.2 µM, partner dose 2 µM), the “cleaved PARP positive nuclei fraction” value was 59.4%.
In the case of `C[As](C)SC[C@H](NC(=O)CC[C@H](N)C(=O)O)C(=O)NCC(=O)O` [Darinaparsin] + COc1ccc2c(c1)CCC1C2CCC2(C)C(NCCCCCCN3C(=O)C=CC3=O)CCC12 [U73122] (first compound 0.4 µM, partner dose 0.4 µM), the “cleaved PARP positive nuclei fraction” value is reported as 69.5%.
`CCc1ccc(CCOc2ccc(CC3SC(=O)NC3=O)cc2)nc1` (stereo unspecified) [pioglitazone] + O=C(Oc1ccc([N+](=O)[O-])cc1)N1CCC(C(O)(c2ccc3c(c2)OCO3)c2ccc3c(c2)OCO3)CC1 [JZL184] (first compound 2 µM, partner dose 1 µM) was tested, and the “cleaved PARP positive nuclei fraction” value was 71.4%.
With `CC1(C)NC(=O)N(c2ccc([N+](=O)[O-])c(C(F)(F)F)c2)C1=O` [nilutamide] + C/C(O)=C(\C#N)C(=O)Nc1cc(Br)ccc1Br [LFM-A13] (first compound 1 µM, partner dose 2 µM) the “cleaved PARP positive nuclei fraction” value was 45.3%.
For `C[C@]12O[C@H](C[C@]1(O)CO)n1c3ccccc3c3c4c(c5c6ccccc6n2c5c31)CNC4=O` [Lestaurtinib] + O=C(Oc1ccc([N+](=O)[O-])cc1)N1CCC(C(O)(c2ccc3c(c2)OCO3)c2ccc3c(c2)OCO3)CC1 [JZL184] (first compound 0.004 µM, partner dose 1 µM), the “cleaved PARP positive nuclei fraction” value was 74.2%.
In the case of `Oc1cc(-c2nc(-c3ccccc3)[nH]c2-c2ccncc2)ccc1Cl` + O=C(Oc1ccc([N+](=O)[O-])cc1)N1CCC(C(O)(c2ccc3c(c2)OCO3)c2ccc3c(c2)OCO3)CC1 [JZL184] (first compound 0.2 µM, partner dose 1 µM), the “cleaved PARP positive nuclei fraction” value is reported as 87.9%.
With `Cc1cc(SCc2sc(-c3ccc(C(F)(F)F)c(F)c3)nc2C)ccc1OCC(=O)O` + c1cc(-c2cnn3cc(-c4ccc(OCCN5CCCCC5)cc4)cnc23)ccn1 [Dorsomorphin] (first compound 2 µM, partner dose 0.4 µM) the “cleaved PARP positive nuclei fraction” value was 25.4%.
In the case of `C[C@]12O[C@H](C[C@]1(O)CO)n1c3ccccc3c3c4c(c5c6ccccc6n2c5c31)CNC4=O` [Lestaurtinib] + C[C@@H]1CCN(C(=O)CC#N)C[C@@H]1N(C)c1ncnc2[nH]ccc12 [CP690550] (first compound 0.004 µM, partner dose 1 µM), the “cleaved PARP positive nuclei fraction” value is reported as 87.7%.
With `O=S(=O)(c1ccccc1)N(CC(F)(F)F)c1ccc(C(O)(C(F)(F)F)C(F)(F)F)cc1` + O=C(Oc1ccc([N+](=O)[O-])cc1)N1CCC(C(O)(c2ccc3c(c2)OCO3)c2ccc3c(c2)OCO3)CC1 [JZL184] (first compound 1.4 µM, partner dose 1 µM) the “cleaved PARP positive nuclei fraction” value was 83.7%.
With `CCN(CC)CCCCNc1ncc2cc(-c3cc(OC)cc(OC)c3)c(NC(=O)NC(C)(C)C)nc2n1` + C/C(O)=C(\C#N)C(=O)Nc1cc(Br)ccc1Br [LFM-A13] (first compound 0.1 µM, partner dose 2 µM) the “cleaved PARP positive nuclei fraction” value was 123%.
For `CC(C)(C)c1cnc(CSc2cnc(NC(=O)C3CCNCC3)s2)o1` + O=C(Oc1ccc([N+](=O)[O-])cc1)N1CCC(C(O)(c2ccc3c(c2)OCO3)c2ccc3c(c2)OCO3)CC1 [JZL184] (first compound 0.01 µM, partner dose 1 µM), the “cleaved PARP positive nuclei fraction” value was 99.5%.
For `C[As](C)SC[C@H](NC(=O)CC[C@H](N)C(=O)O)C(=O)NCC(=O)O` [Darinaparsin] + O=C(O)C(=O)Nc1sc2c(c1C(=O)O)CCNC2 [TCS401] (first compound 0.4 µM, partner dose 1.66667 µM), the “cleaved PARP positive nuclei fraction” value was 97.6%.
With `CCN(CC)CCCCNc1ncc2cc(-c3cc(OC)cc(OC)c3)c(NC(=O)NC(C)(C)C)nc2n1` + O=C(Oc1ccc([N+](=O)[O-])cc1)N1CCC(C(O)(c2ccc3c(c2)OCO3)c2ccc3c(c2)OCO3)CC1 [JZL184] (first compound 0.1 µM, partner dose 1 µM) the “cleaved PARP positive nuclei fraction” value was 105%.
`C[As](C)SC[C@H](NC(=O)CC[C@H](N)C(=O)O)C(=O)NCC(=O)O` [Darinaparsin] + Cc1cc(SCc2sc(-c3ccc(C(F)(F)F)c(F)c3)nc2C)ccc1OCC(=O)O [GW0742] (first compound 0.4 µM, partner dose 2 µM) was tested, and the “cleaved PARP positive nuclei fraction” value was 90.3%.
With `CCc1ccc(CCOc2ccc(CC3SC(=O)NC3=O)cc2)nc1` (stereo unspecified) [pioglitazone] + C/C(O)=C(\C#N)C(=O)Nc1cc(Br)ccc1Br [LFM-A13] (first compound 2 µM, partner dose 2 µM) the “cleaved PARP positive nuclei fraction” value was 121%.
For `CO[C@@H]1[C@H](N(C)C(=O)c2ccccc2)C[C@H]2O[C@]1(C)n1c3ccccc3c3c4c(c5c6ccccc6n2c5c31)C(=O)NC4` [Midostaurin] + C/C(O)=C(\C#N)C(=O)Nc1cc(Br)ccc1Br [LFM-A13] (first compound 0.08 µM, partner dose 2 µM), the “cleaved PARP positive nuclei fraction” value was 93.1%.
For `c1cc(-c2cnn3cc(-c4ccc(OCCN5CCCCC5)cc4)cnc23)ccn1` [Dorsomorphin] + O=C(Oc1ccc([N+](=O)[O-])cc1)N1CCC(C(O)(c2ccc3c(c2)OCO3)c2ccc3c(c2)OCO3)CC1 [JZL184] (first compound 0.4 µM, partner dose 1 µM), the “cleaved PARP positive nuclei fraction” value was 85.7%.
With `Cc1cc(SCc2sc(-c3ccc(C(F)(F)F)c(F)c3)nc2C)ccc1OCC(=O)O` + Cn1cc(/C=C2\C(=O)Nc3cccnc32)c2ccccc21 [GW441756] (first compound 2 µM, partner dose 0.4 µM) the “cleaved PARP positive nuclei fraction” value was 47.7%.
For `C[C@]12O[C@H](C[C@]1(O)CO)n1c3ccccc3c3c4c(c5c6ccccc6n2c5c31)CNC4=O` [Lestaurtinib] + C/C(O)=C(\C#N)C(=O)Nc1cc(Br)ccc1Br [LFM-A13] (first compound 0.004 µM, partner dose 2 µM), the “cleaved PARP positive nuclei fraction” value was 93.9%.
`C[As](C)SC[C@H](NC(=O)CC[C@H](N)C(=O)O)C(=O)NCC(=O)O` [Darinaparsin] + COc1cc2ncnc(Nc3ccc(Oc4ccccc4)cc3)c2cc1OC [SrcI1] (first compound 0.4 µM, partner dose 2 µM) was tested, and the “cleaved PARP positive nuclei fraction” value was 143%.
`Cn1nnc2c(C(N)=O)ncn2c1=O` [temozolomide] + O=C(Oc1ccc([N+](=O)[O-])cc1)N1CCC(C(O)(c2ccc3c(c2)OCO3)c2ccc3c(c2)OCO3)CC1 [JZL184] (first compound 2 µM, partner dose 1 µM) was tested, and the “cleaved PARP positive nuclei fraction” value was 104%.
In the case of `C[C@]1(c2nc3c(C(N)=O)cccc3[nH]2)CCCN1` [Veliparib] + O=C(Oc1ccc([N+](=O)[O-])cc1)N1CCC(C(O)(c2ccc3c(c2)OCO3)c2ccc3c(c2)OCO3)CC1 [JZL184] (first compound 1.4 µM, partner dose 1 µM), the “cleaved PARP positive nuclei fraction” value is reported as 124%.
With `Nc1cccc2c1CN(C1CCC(=O)NC1=O)C2=O` (stereo unspecified) [lenalidomide] + O=C(Oc1ccc([N+](=O)[O-])cc1)N1CCC(C(O)(c2ccc3c(c2)OCO3)c2ccc3c(c2)OCO3)CC1 [JZL184] (first compound 1 µM, partner dose 1 µM) the “cleaved PARP positive nuclei fraction” value was 73.6%.
In the case of `C[C@]12O[C@H](C[C@]1(O)CO)n1c3ccccc3c3c4c(c5c6ccccc6n2c5c31)CNC4=O` [Lestaurtinib] + COc1ccc(COc2ccc(Cc3cnc(N)nc3N)cc2OC)cc1 [GW2580] (first compound 0.004 µM, partner dose 1 µM), the “cleaved PARP positive nuclei fraction” value is reported as 72.9%.
`Cc1nc(Nc2ncc(C(=O)Nc3c(C)cccc3Cl)s2)cc(N2CCN(CCO)CC2)n1` [dasatanib] + C/C(O)=C(\C#N)C(=O)Nc1cc(Br)ccc1Br [LFM-A13] (first compound 0.004 µM, partner dose 2 µM) was tested, and the “cleaved PARP positive nuclei fraction” value was 45.6%.
`Cc1cc(SCc2sc(-c3ccc(C(F)(F)F)c(F)c3)nc2C)ccc1OCC(=O)O` + Cc1cc([N+](=O)[O-])ccc1NS(=O)(=O)c1cc(Cl)ccc1Cl [FH535] (first compound 2 µM, partner dose 1 µM) was tested, and the “cleaved PARP positive nuclei fraction” value was 86.9%.
For `O=S(=O)(c1ccccc1)N(CC(F)(F)F)c1ccc(C(O)(C(F)(F)F)C(F)(F)F)cc1` + C/C(O)=C(\C#N)C(=O)Nc1cc(Br)ccc1Br [LFM-A13] (first compound 1.4 µM, partner dose 2 µM), the “cleaved PARP positive nuclei fraction” value was 62.4%.
`O=C(Oc1ccc([N+](=O)[O-])cc1)N1CCC(C(O)(c2ccc3c(c2)OCO3)c2ccc3c(c2)OCO3)CC1` + CCCCCCCCCCCC1=C(O)C(=O)C=C(O)C1=O [Embelin] (first compound 1 µM, partner dose 1.2 µM) was tested, and the “cleaved PARP positive nuclei fraction” value was 24.9%.
With `Cn1cncc1[C@@](N)(c1ccc(Cl)cc1)c1ccc2c(c1)c(-c1cccc(Cl)c1)cc(=O)n2C` [tipifarnib] + Cc1cc(SCc2sc(-c3ccc(C(F)(F)F)c(F)c3)nc2C)ccc1OCC(=O)O [GW0742] (first compound 0.01 µM, partner dose 2 µM) the “cleaved PARP positive nuclei fraction” value was 176%.
`O=C1NC(=O)/C(=C/c2ccc(-c3ccc(F)cc3O)o2)S1` + O=C(Oc1ccc([N+](=O)[O-])cc1)N1CCC(C(O)(c2ccc3c(c2)OCO3)c2ccc3c(c2)OCO3)CC1 [JZL184] (first compound 1 µM, partner dose 1 µM) was tested, and the “cleaved PARP positive nuclei fraction” value was 78.1%.
`CN(C)S(=O)(=O)c1ccc2c(c1)/C(=C/c1cc3c([nH]1)CCCC3)C(=O)N2` + Cc1cc(SCc2sc(-c3ccc(C(F)(F)F)c(F)c3)nc2C)ccc1OCC(=O)O [GW0742] (first compound 0.4 µM, partner dose 2 µM) was tested, and the “cleaved PARP positive nuclei fraction” value was 88.6%.
